Source: PubChem BioAssay AID504444 (National Center for Advancing Translational Sciences (NCATS), 2011)
Hit rate of the full screen: of about 360,000 compounds, about 7,500 (2.1%) were called active. This list was built around the results that the source calls inconclusive (neither active nor inactive); the mix of calls is not that of the screen. Calls come from the whole dose curve; as a rule, active = well fitted inhibition curve with a large enough effect; inconclusive = small, poorly fitted or top-dose-only effect, or effect the other way; inactive = flat fitted curve, though single readings scatter. Potencies beside an inconclusive call are fits to weak or partial responses and may not hold up.

Assay: Nrf2 qHTS screen for inhibitors; note: nearly all actives have a fitted effect of over 60% in size
Conditions: A549 ARE-Fluc reporter, luciferase luminescence, 18-24 h; series mostly up to 46 µM
How it was run: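 In this cell-based qHTS, ARE-driven firefly luciferase in A549 cells reports Nrf2 activity; the luminescent signal after BugLite lysis is the measured value, with a prior CellTiter-Fluor read for cell health.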
Potency is the fitted concentration of half-maximal effect.

Structure (SMILES) | Potency
Fc1ccccc1N1CCN(c2ncnc3[nH]ncc23)CC1 | inconclusive: 8.2 µM [activator, partial curve]
COc1cccc(OCCCCn2c(-c3ccc(Cl)cc3)nc3ccccc3c2=O)c1 | inactive
O=C(Nc1nnc(SCc2ccc(F)cc2)s1)C1Cc2ccccc2CN1C(=O)c1ccco1 (configuration not stated) | active: 16.4 µM
Cc1ccc(-c2onc(C)c2C)cc1S(=O)(=O)NCc1ccco1 | inconclusive: 29.1 µM [activator, single point]
Cc1ccc(Nc2cc(=O)n(C3CCCCC3)c(=O)[nH]2)cc1C | inconclusive: 29.1 µM [falling, single point]
CCCc1nnc(NC(=O)c2cccs2)s1 | inconclusive: 25.9 µM [activator, single point]
Oc1ccc(Cl)cc1C1C=C(c2ccc3c(c2)OCO3)NC(c2ccc(Cl)cc2)N1 (configuration not stated) | inconclusive: 29.1 µM [activator, single point]
O=C(/C=C/c1ccccc1)NC(=S)Nc1ccccc1O | inactive
CSc1cccc(-n2cc(-c3ccc4c(c3)OCO4)[nH]c2=O)c1 | inconclusive: 13 µM [activator, partial curve, poor fit]
Cc1noc(C)c1COc1ccc(C(=O)N2CCN(S(=O)(=O)c3ccc(Cl)cc3)CC2)cc1 | inactive
O=C(COc1ccc(Cl)c(Cl)c1)NN1C(=O)C2C(C1=O)C1C=CC2C12CC2 (configuration not stated) | inactive
Cc1cc(C(=O)OCc2nnc(-c3ccccc3)o2)c(C)n1-c1ccccc1 | inactive
COc1ccc(NC(=O)C2C3C=CC4(O3)C2C(=O)N(CCN2CCCCC2)C4C(=O)NC2CCCC(C)C2C)cc1 (configuration not stated) | inconclusive: 20.6 µM [activator, single point]
O=C(COc1ccc(Cl)cc1Br)N1CCN(c2ccccc2)CC1 | inconclusive: 29.1 µM [falling, single point]
O=C(Oc1cccc2cccnc12)c1cccc(N2C(=O)C3C4CCC(C4)C3C2=O)c1 (configuration not stated) | inconclusive: 3.66 µM [falling, full curve]
CC12CC3CC(C)(C1)CC(C(=O)Nc1nncs1)(C3)C2 | inactive
O=C(NC1CCCCC1)C(c1cccnc1)N(C(=O)CCl)c1cccc(Cl)c1 (configuration not stated) | inconclusive: 20.6 µM [falling, single point]
COc1ccc(C(=O)C[n+]2ccc3ccccc3c2C)cc1 | inconclusive: 2.59 µM [activator, partial curve, poor fit]
CCOC(=O)C1CCN(Cc2cccc(Oc3ccc(Cl)cc3)c2)CC1 | inconclusive: 29.1 µM [activator, single point]
Nc1ccc2nc[nH]c2c1 | inconclusive: 9.2 µM [falling, partial curve]
O=C(NCc1ccncc1)C(=O)Nc1nc2ccccc2s1 | inconclusive: 11.6 µM [activator, partial curve, poor fit]
Cn1nc(-c2ccc(OCC(=O)Nc3cccnc3)cc2)c2ccccc2c1=O | inconclusive: 9.2 µM [falling, partial curve]
Cc1ccc(-c2nnc(Nc3cccc(Cl)c3)c3ccccc23)cc1S(=O)(=O)NCC1CCCO1 (configuration not stated) | inconclusive: 1.84 µM [falling, full curve]

By substructure: the entries above containing a Cl atom
Structure (SMILES) | Potency
COc1cccc(OCCCCn2c(-c3ccc(Cl)cc3)nc3ccccc3c2=O)c1 | inactive
Oc1ccc(Cl)cc1C1C=C(c2ccc3c(c2)OCO3)NC(c2ccc(Cl)cc2)N1 (configuration not stated) | inconclusive: 29.1 µM [activator, single point]
Cc1noc(C)c1COc1ccc(C(=O)N2CCN(S(=O)(=O)c3ccc(Cl)cc3)CC2)cc1 | inactive
O=C(COc1ccc(Cl)c(Cl)c1)NN1C(=O)C2C(C1=O)C1C=CC2C12CC2 (configuration not stated) | inactive
O=C(COc1ccc(Cl)cc1Br)N1CCN(c2ccccc2)CC1 | inconclusive: 29.1 µM [falling, single point]
O=C(NC1CCCCC1)C(c1cccnc1)N(C(=O)CCl)c1cccc(Cl)c1 (configuration not stated) | inconclusive: 20.6 µM [falling, single point]
CCOC(=O)C1CCN(Cc2cccc(Oc3ccc(Cl)cc3)c2)CC1 | inconclusive: 29.1 µM [activator, single point]
Cc1ccc(-c2nnc(Nc3cccc(Cl)c3)c3ccccc23)cc1S(=O)(=O)NCC1CCCO1 (configuration not stated) | inconclusive: 1.84 µM [falling, full curve]

An excerpt from above in order of formula weight, high to low.
Structure (SMILES) | Potency
Cc1noc(C)c1COc1ccc(C(=O)N2CCN(S(=O)(=O)c3ccc(Cl)cc3)CC2)cc1 | inactive
CCOC(=O)C1CCN(Cc2cccc(Oc3ccc(Cl)cc3)c2)CC1 | inconclusive: 29.1 µM [activator, single point]
Fc1ccccc1N1CCN(c2ncnc3[nH]ncc23)CC1 | inconclusive: 8.2 µM [activator, partial curve]

Next part.

Structure (SMILES) | Potency
CCCCCn1cnc2sc(CC)cc2c1=O | inconclusive: 6.51 µM [activator, partial curve]
CCOC(=O)C1CCCN(C(=O)c2cc3cc(F)ccc3[nH]2)C1 (configuration not stated) | inconclusive: 8.2 µM [activator, partial curve, poor fit]
Nc1nc(-c2ccccc2)cc(-c2ccccc2O)n1 | inconclusive: 20.6 µM [falling, single point]
CC1=CC(C)(C)Nc2ccc(OC(=O)CN3C(=O)c4cccc5cccc(c45)C3=O)cc21 | inconclusive: 6.51 µM [falling, full curve, poor fit]
O=C(Nc1nccs1)c1cccc(S(=O)(=O)N2CCCC2)c1 | inconclusive: 25.9 µM [falling, single point]
CCOc1ccccc1NC(=O)COn1nnc2ccc(Cl)cc21 | inactive
Cc1nc(-c2ccc(C(F)(F)F)cc2)sc1C(=O)NN | inconclusive: 29.1 µM [activator, single point]
COc1ccc(C(CCN2CCOCC2)c2c(O)cc(OC)cc2OC)cc1 (configuration not stated) | inactive
Cc1ccc(CNC(=O)CSc2ccsc2[N+](=O)[O-])cc1 | inconclusive: 3.26 µM [activator, full curve]
COCCN1C(=O)c2[nH]nc(-c3ccccc3O)c2C1c1ccc(OCc2ccccc2)c(OC)c1 (configuration not stated) | inconclusive: 23.1 µM [falling, single point]
COC(=O)c1c(-c2cccs2)csc1NC(=O)c1ccc(Cl)cc1 | inconclusive: 2.31 µM [activator, full curve, poor fit]
CC(C)c1nc2oc3c(NCc4cccnc4)ncnc3c2c2c1CCC2 | inactive
CCc1ccc(N(CC)C(=O)c2ccc3c(=O)n4c(nc3c2)CCCCC4)cc1 | inconclusive: 18.4 µM [falling, single point]
Cc1ccc(S(=O)(=O)c2cnc(SCC(=O)Nc3cc(C)cc(C)c3)nc2N)cc1 | inconclusive: 11.6 µM [falling, partial curve, poor fit]
O=C(NCCNCc1ccccc1)c1ccco1 | inconclusive: 32.6 µM [falling, partial curve, poor fit]
c1ccc(COc2ccc(OCCCCN3CCCCC3)cc2)cc1 | inconclusive: 4.61 µM [activator, full curve, poor fit]
Cc1cc([N+](=O)[O-])nn1CC(=O)N/N=C/c1ccc(O)cc1O | inconclusive: 13 µM [falling, partial curve]
COc1ccc(OCCSc2ncc(CO)n2C)cc1 | inconclusive: 18.4 µM [activator, single point]
Cn1cnnc1Sc1ccc(C(=O)OCC(=O)NCC(F)(F)F)cc1[N+](=O)[O-] | inconclusive: 29.1 µM [activator, partial curve, poor fit]
CCOC(=O)c1c(C)oc2nc(C)nc(NCc3ccccc3Cl)c12 | inactive
O=c1c(C=Nc2ccc(Oc3ccccc3)cc2)c[nH]n1-c1cccc(Cl)n1 | inconclusive: 29.1 µM [falling, single point]
C=CC[C@@H](Cc1ccc(F)cc1)C(=O)OC[C@H]1CCCN1C(=O)[C@H](CC=C)CC(=O)N[C@H](CO)Cc1ccccc1 | active: 23.1 µM
CCCCc1ccc(-n2nc3cc(C)c(NC(=O)Cc4ccccc4)cc3n2)cc1 | inconclusive: 13 µM [activator, partial curve, poor fit]

Structure (SMILES) | Potency
Cc1cc(C(=O)CN2CCC(C)CC2)c(C)n1-c1ccc(F)cc1 | inactive
Clc1ccc2oc(-c3ccccn3)nc2c1 | inconclusive: 11.6 µM [activator, partial curve]
CCCNC(=O)c1ccc2c(c1)C1C3CCC(C3)C1C(c1ccccc1)N2 (configuration not stated) | active: 20.6 µM
O=C(CCl)Nc1ccccc1C(=O)c1ccccc1 | inactive
COc1ccc(CSc2nnc(N)s2)cc1F | inconclusive: 18.4 µM [activator, partial curve]
CC(=O)Nc1ccc(/C=N/Nc2nc3ccccc3s2)cc1 | inconclusive: 20.6 µM [activator, partial curve]
CC(C)c1[nH]nc2c1C(c1ccco1)C(C#N)=C(N)O2 (configuration not stated) | inactive
Cc1ccc(C)c(NC(=O)c2ccccc2O)c1 | inconclusive: 14.6 µM [falling, single point]
CC(C)COC(=O)N1CCN(S(=O)(=O)c2ccc3c(c2)CCC3)CC1 | inconclusive: 29.1 µM [falling, partial curve, poor fit]
CN(C1CCCCC1)S(=O)(=O)c1ccc(SCC(=O)NC(C)(C)C)nc1 | inconclusive: 25.9 µM [falling, partial curve, poor fit]
COc1ccc(NC(=O)Cc2ccc(Cl)cc2)cc1S(=O)(=O)N1CCCCC1 | inconclusive: 25.9 µM [falling, single point]
Cc1ccc(NC(=O)c2ccc(OCC3CCCO3)cc2)cc1 (configuration not stated) | inconclusive: 1.84 µM [activator, full curve]
Cc1nnc(SCc2ccc(C(=O)c3ccc(Cl)cc3)o2)n1-c1ccccc1 | inconclusive: 32.6 µM [falling, partial curve, poor fit]
CC1CC=CC2C1C(=O)N(Cc1ccccc1)C2c1ccc(Br)cc1F (configuration not stated) | inactive
O=C(Nc1cccc(S(=O)(=O)NC2=NCCC2)c1)c1cn(-c2ccccc2)nc1-c1ccc(F)cc1 | inconclusive: 20.6 µM [falling, single point]
Cc1nn(C(C)C)c(C)c1CN1CCC(C(=O)Nc2cccc(-c3cccc(F)c3)c2)CC1 | inactive
COc1ccc2c(c1)OC[C@H]1[C@H]2N2C(=O)c3cc(OC)c(OC)cc3NC(=O)[C@@]2(C)[C@H]1c1ccccc1 | inconclusive: 4.61 µM [falling, single point]
COc1ccc(-c2cn3c(n2)sc2cc(C(=O)NCc4ccccc4OC)ccc23)cc1 | inconclusive: 14.6 µM [falling, partial curve, poor fit]
COC(=O)c1cc(S(=O)(=O)NCC2CCN(Cc3cc(C)ccc3C)CC2)c[nH]1 | inconclusive: 0.092 µM [falling, full curve, poor fit]
Cc1ccc(SCCN2CCC(NC(=O)OCc3ccccc3)CCC2=O)cc1 (configuration not stated) | inactive
CCCCNC(=O)c1onc(CSc2ccccc2)c1C(=O)NCCCC | inconclusive: 29.1 µM [falling, single point]
